Data taken from article PMC7084908.
No constants are given. Whether binding was seen depends on the method and setting. Binding seen in cells or lysates may run through a third protein. Here binding means that the protein was enriched with, or labelled near, the bait; the list need not be complete. Tags and fused reporters may be left off the sequences shown.

Protein sequences, listed by entry. Tags and fused reporters are not part of them.
UniProt Q945P1: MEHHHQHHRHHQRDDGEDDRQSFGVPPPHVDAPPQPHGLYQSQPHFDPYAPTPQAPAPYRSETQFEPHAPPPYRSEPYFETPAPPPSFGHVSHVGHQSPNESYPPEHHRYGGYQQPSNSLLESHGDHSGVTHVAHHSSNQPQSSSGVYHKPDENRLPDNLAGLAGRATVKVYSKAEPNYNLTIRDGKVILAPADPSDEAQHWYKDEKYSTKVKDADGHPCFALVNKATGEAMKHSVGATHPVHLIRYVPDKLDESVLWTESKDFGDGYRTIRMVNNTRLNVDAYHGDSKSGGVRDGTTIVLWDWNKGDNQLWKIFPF

B1: 50S ribosomal protein L16 (protein, UniProt P56793 1-135)
chain: MLSPKRTRFRKQHRGRLKGISSRGNRICFGRYALQTLEPAWITSRQIEAGRRAMTRNVRRGGKIWVRIFPDKPVTVRPAETRMGSGKGSPEYWVAVVKPGKILYEMGGVPENIARKAISIAASKMPIKTQFIISE
B2: 30S ribosomal protein S20 (protein, UniProt Q9ASV6 80-202)
chain: AAAPTKKADSAAKRARQAEKRRVYNKSKKSEARTRMKKVLEALEGLKKKTDAQADEIVTVEKLIGEAYSAIDKAVKVKALHKNTGARRKSRLARRKKAVEIHHGWYVPDAAAAAPSEAVPMAA
B3: Probable ribose-5-phosphate isomerase 3 (enzyme, UniProt Q9S726 40-276)
chain: SVALSQDDLKKLAAEKAVEAIKPGMVLGLGTGSTAAFAVDQIGKLLSSGELYDIVGIPTSKRTEEQARSLGIPLVGLDTHPRIDLAIDGADEVDPNLDLVKGRGGALLREKMVEAVADKFIVVADDTKLVTGLGGSGLAMPVEVVQFCWNFNLIRLQDLFKEFGCESKLRVDGDGKPYVTDNSNYIIDLYFKTPLKDGFAAAKEIGKFQGVVEHGLFLGMATSVIIAGKNGVEVMTK
B4: Catalase-3 (enzyme, UniProt Q42547 1-492)
chain: MDPYKYRPSSAYNAPFYTTNGGAPVSNNISSLTIGERGPVLLEDYHLIEKVANFTRERIPERVVHARGISAKGFFEVTHDISNLTCADFLRAPGVQTPVIVRFSTVVHERASPETMRDIRGFAVKFYTREGNFDLVGNNTPVFFIRDGIQFPDVVHALKPNPKTNIQEYWRILDYMSHLPESLLTWCWMFDDVGIPQDYRHMEGFGVHTYTLIAKSGKVLFVKFHWKPTCGIKNLTDEEAKVVGGANHSHATKDLHDAIASGNYPEWKLFIQTMDPADEDKFDFDPLDVTKIWPEDILPLQPVGRLVLNRTIDNFFNETEQLAFNPGLVVPGIYYSDDKLLQCRIFAYGDTQRHRLGPNYLQLPVNAPKCAHHNNHHEGFMNFMHRDEEINYYPSKFDPVRCAEKVPTPTNSYTGIRTKCVIKKENNFKQAGDRYRSWAPDRQDRFVKRWVEILSEPRLTHEIRGIWISYWSQADRSLGQKLASRLNVRPSI
B5: Succinate--CoA ligase [ADP-forming] subunit beta (enzyme, UniProt O82662 27-421)
chain: LNIHEYQGAELMGKYGVNVPKGVAASSLEEVKKAIQDVFPNESELVVKSQILAGGRGLGTFKSGLKGGVHIVKRDEAEEIAGKMLGQVLVTKQTGPQGKVVSKVYLCEKLSLVNEMYFSIILDRKSAGPLIIACKKGGTSIEDLAEKFPDMIIKVPIDVFAGITDEDAAKVVDGLAPKAADRKDSIEQVKKLYELFRKTDCTMLEINPLAETSTNQLVAADAKLNFDDNAAFRQKEVFAMRDPTQEDPREVAAAKVDLNYIGLDGEIGCMVNGAGLAMATMDIIKLHGGTPANFLDVGGNASEHQVVEAFKILTSDDKVKAILVNIFGGIMKCDVIASGIVNAAKEVALKVPVVVRLEGTNVEQGKRILKESGMKLITADDLDDAAEKAVKALAH
B6: 30S ribosomal protein S9 (protein, UniProt Q9XJ27 53-208)
chain: TVSAPPEEEEIVELKKYVKSRLPGGFAAQKIIGTGRRKCAIARVVLQEGTGKVIINYRDAKEYLQGNPLWLQYVKVPLVTLGYENSYDIFVKAHGGGLSGQAQAITLGVARALLKVSADHRSPLKKEGLLTRDARVVERKKAGLKKARKAPQFSKR
B7: 50S ribosomal protein L13 (protein, UniProt Q9SYL9 51-241)
chain: RGLQVKCEAEPTTTTSLVPANQRWMFDEEEANGPDIWNTTWYPKASDHVNTDKPWFVVDATDKILGRLASTIANHIRGKNLASYTPSVDMGAFVIVVNAEKVAVSGKKRNQKLYRRHSGRPGGMTVETFDQLQQRIPERIVEHAVRGMLPKGRLGRALFNHLKVYKGPDHPHEAQKPLDLPIRDKRIQLQK
B8: 30S ribosomal protein S17 (protein, UniProt P16180 50-149)
chain: MKTMQGRVVCATSDKTVAVEVVRLAPHPKYKRRVRMKKKYQAHDPDNQFKVGDVVRLEKSRPISKTKSFVALPVIARAARKAEAGGDELLGLPLESQQPA
B9: Catalase-2 (enzyme, UniProt P25819 1-492)
chain: MDPYKYRPASSYNSPFFTTNSGAPVWNNNSSMTVGPRGPILLEDYHLVEKLANFDRERIPERVVHARGASAKGFFEVTHDISNLTCADFLRAPGVQTPVIVRFSTVIHERGSPETLRDPRGFAVKFYTREGNFDLVGNNFPVFFIRDGMKFPDMVHALKPNPKSHIQENWRILDFFSHHPESLNMFTFLFDDIGIPQDYRHMDGSGVNTYMLINKAGKAHYVKFHWKPTCGVKSLLEEDAIRVGGTNHSHATQDLYDSIAAGNYPEWKLFIQIIDPADEDKFDFDPLDVTKTWPEDILPLQPVGRMVLNKNIDNFFAENEQLAFCPAIIVPGIHYSDDKLLQTRVFSYADTQRHRLGPNYLQLPVNAPKCAHHNNHHEGFMNFMHRDEEVNYFPSRYDQVRHAEKYPTPPAVCSGKRERCIIEKENNFKEPGERYRTFTPERQERFIQRWIDALSDPRITHEIRSIWISYWSQADKSLGQKLASRLNVRPSI
B10: Aminomethyltransferase (enzyme, UniProt O65396 25-408)
chain: VSRRYFASEADLKKTALYDFHVAHGGKMVPFAGWSMPIQYKDSIMDSTVNCRENGSLFDVAHMCGLSLKGKDCVPFLETLVVADVAGLAPGTGSLTVFTNEKGGAIDDSVITKVTDEHIYLVVNAGCRDKDLAHIEEHMKAFKSKGGDVSWHIHDERSLLALQGPLAAPVLQHLTKEDLSKLYFGNFQILDINGSTCFLTRTGYTGEDGFEISVPDEHAVDLAKAILEKSEGKVRLTGLGARDSLRLEAGLCLYGNDMEQHISPVEAGLTWAIGKRRRAEGGFLGADVILQQLKDGPTIRRVGFFSSGPPARSHSEVHDESGNKIGEITSGGFSPNLKKNIAMGYVKSGQHKTGTKVKILVRGKPYEGSITKMPFVATKYYKPT
B11: 50S ribosomal protein L4 (protein, UniProt O50061 50-282)
chain: QLATLPILSFEGEKVGETYLDLKAAPEDTARAVVHRAIVTDLNNKRRGTASTLTRGEVRGGGIKPYSQKKTGHARRGSQRTPLRPGGGVVFGPRPKDWSIKINRKEKKLAISTALSSAASAEGGAIVVEEFGEKFEKPKTKDFLAAMQRWGLDPKEKAMFLMIDVDENVAKSSRNIGTLRMLTPRTLNLFDILNADKLVLTPAAVEFLNARYGVDAVEEEDDDEDETEGSEEA
B12: Glycine-rich RNA-binding protein 7 AtGRP7 (protein, UniProt Q03250 1-176)
chain: MASGDVEYRCFVGGLAWATDDRALETAFAQYGDVIDSKIINDRETGRSRGFGFVTFKDEKAMKDAIEGMNGQDLDGRSITVNEAQSRGSGGGGGHRGGGGGGYRSGGGGGYSGGGGSYGGGGGRREGGGGYSGGGGGYSSRGGGGGSYGGGRREGGGGYGGGEGGGYGGSGGGGGW
B13: DNA repair RAD52-like protein 2, chloroplastic (protein, UniProt Q9FIJ4 41-199)
chain: SGGGVGGGDAGKKKAVPNSNYVVPIDKFSSSSSITRPLIEILRDLNKKIPDNIVKSHDPPSTSAATSGFIPWYHANRMLSFYAPGWCGEVRDVIFSENGNVTVVYRLTIRGSDGEAHRESTGTVTTTDDHIEDPVTAAEEIAFCRACARFGLGLYLYHE
B14: Xyloglucan endotransglucosylase /hydrolase (enzyme, UniProt Q39099 25-296)
chain: IPPRKAIDVPFGRNYVPTWAFDHQKQFNGGSELQLILDKYTGTGFQSKGSYLFGHFSMHIKLPAGDTAGVVTAFYLSSTNNEHDEIDFEFLGNRTGQPAILQTNVFTGGKGNREQRIYLWFDPSKAYHTYSILWNMYQIVFFVDNIPIRTFKNAKDLGVRFPFNQPMKLYSSLWNADDWATRGGLEKTNWANAPFVASYKGFHIDGCQASVEAKYCATQGRMWWDQKEFRDLDAEQWRRLKWVRMKWTIYNYCTDRTRFPVMPAECKRDRDA

Molecular target: Recombinant Myc- and His-tagged ArathEULS3 protein (Arabidopsis thaliana) (UniProt Q945P1)
Assay: affinity purification with mass spectrometry; 100 µg purified Myc-tagged ArathEULS3 immobilised on Myc-Trap beads; 300 µg lysate of 2-week-old A. thaliana seedlings treated with 100 µM ABA for 5 h added for 1 h at 4 °C; washed with 10 mM Tris-HCl pH 7.5, 150 mM NaCl, 0.5 mM EDTA; LC-MS/MS of three replicates, compared with empty beads; only the target purified

Binder | binding
B1 | binds
B2 | binds
B3 | binds
B4 | binds
B5 | binds
B6 | binds
B7 | binds
B8 | binds
B9 | binds
B10 | binds
B11 | binds
B12 | binds
B13 | binds
B14 | binds
